Reference: article PMC10580587
Results are given in words; binding and its absence hold for the method and conditions named. In cells and extracts the contact can be indirect. Binding can be weak; no strength is given. Sequences can lack the tags named with a protein.

The chains behind the UniProt entries cited, without tags or fusion partners. Where a name states a change or a piece, a line headed by the entry shows the natural chain unless it says otherwise.
UniProt Q13485: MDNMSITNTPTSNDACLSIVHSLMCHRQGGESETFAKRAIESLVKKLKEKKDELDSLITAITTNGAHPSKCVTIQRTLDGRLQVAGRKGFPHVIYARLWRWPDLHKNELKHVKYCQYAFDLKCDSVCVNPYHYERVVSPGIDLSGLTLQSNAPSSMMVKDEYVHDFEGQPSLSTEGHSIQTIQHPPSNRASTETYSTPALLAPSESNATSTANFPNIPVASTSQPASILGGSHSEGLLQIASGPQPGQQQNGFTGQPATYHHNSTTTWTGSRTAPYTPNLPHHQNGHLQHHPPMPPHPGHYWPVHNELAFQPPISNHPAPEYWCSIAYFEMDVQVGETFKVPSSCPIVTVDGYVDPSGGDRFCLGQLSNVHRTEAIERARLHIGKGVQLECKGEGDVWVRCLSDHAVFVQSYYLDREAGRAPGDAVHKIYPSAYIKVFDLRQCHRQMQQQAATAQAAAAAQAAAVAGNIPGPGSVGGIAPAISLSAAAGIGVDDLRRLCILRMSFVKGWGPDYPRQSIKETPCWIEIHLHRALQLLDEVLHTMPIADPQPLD

Target: flag-HA-tagged SMAD4 (human) (UniProt Q13485)
Assay: co-IP; Hela cells cotransfected with flag-HA-tagged SMAD3 or SMAD4 and HA-tagged CSRP2BP; lysate incubated with anti-flag antibody (or control normal IgG) at 4 °C for 2 h, precipitated with protein A/G; Western blotting with anti-HA antibody

B1: HA-tagged CSRP2BP (protein, UniProt Q9H8E8 1-782)
chain: MDSSIHLSSLISRHDDEATRTSTSEGLEEGEVEGETLLIVESEDQASVDLSHDQSGDSLNSDEGDVSWMEEQLSYFCDKCQKWIPASQLREQLSYLKGDNFFRFTCSDCSADGKEQYERLKLTWQQVVMLAMYNLSLEGSGRQGYFRWKEDICAFIEKHWTFLLGNRKKTSTWWSTVAGCLSVGSPMYFRSGAQEFGEPGWWKLVHNKPPTMKPEGEKLSASTLKIKAASKPTLDPIITVEGLRKRASRNPVESAMELKEKRSRTQEAKDIRRAQKEAAGFLDRSTSSTPVKFISRGRRPDVILEKGEVIDFSSLSSSDRTPLTSPSPSPSLDFSAPGTPASHSATPSLLSEADLIPDVMPPQALFHDDDEMEGDGVIDPGMEYVPPPAGSVASGPVVGVRKKVRGPEQIKQEVESEEEKPDRMDIDSEDTDSNTSLQTRAREKRKPQLEKDTKPKEPRYTPVSIYEEKLLLKRLEACPGAVAMTPEARRLKRKLIVRQAKRDRGLPLFDLDQVVNAALLLVDGIYGAKEGGISRLPAGQATYRTTCQDFRILDRYQTSLPSRKGFRHQTTKFLYRLVGSEDMAVDQSIVSPYTSRILKPYIRRDYETKPPKLQLLSQIRSHLHRSDPHWTPEPDAPLDYCYVRPNHIPTINSMCQEFFWPGIDLSECLQYPDFSVVVLYKKVIIAFGFMVPDVKYNEAYISFLFVHPEWRRAGIATFMIYHLIQTCMGKDVTLHVSASNPAMLLYQKFGFKTEEYVLDFYDKYYPLESTECKHAFFLRLRR
- binding: binds
